For at least one compound, name, drawing or mass did not settle the structure.
Test system: HMC1 cells
Test: In vitro testing of mast cell line HMC-1: histamine release after IgE/anti-IgE, ELISA of supernatant
Format: cell-based
Settings: IgE/anti-IgE stimulated
Protocol: Mast cell lines, i.e. HMC1 cells (provided by Dr Joseph H. Butterfield; Mayo Clinic, Rochester, Minn., USA), were cultured in Isocove's Modified Dulbecco's Medium (IMDM) containing 10% Fetal Bovine Serum (FBS), 2 mM L-glutamine, 50 μM 2-mercaptoethanol, 100 U/mL penicillin and 100 μg/mL streptomycin. Cells were maintained at 37° C. in 5% CO2 in a humidified atmosphere.
Percentage of living cells was determined by trypan blue staining. A 1:10 dilution with 50 μl cell suspension and 450 μl trypan blue was prepared and the number of living and dead cells was counted in a hemocytometer. 10^6 living cells were transferred into safe-lock Eppendorf tubes. Cell suspensions were centrifuged (200 g, 5 min) and supernatant was discarded.
The effect of perilla oil, sesame oil and a combination of perilla oil and sesame oil (in a combination ratio of 1:1) in the vehicle Kolliphor ELP (polyoxyl-35 hydrogenated castor oil) was determined. The positive control Cromolyn in phosphate buffer saline (PBS), the vehicles PBS and ELP, and calcium ionophore A23187 were also tested as controls. […]
The concentration of histamine in the collected supernatant was determined by ELISA, using a kit obtained from IBL International according to the manufacturer's guidelines. Each sample was measured twice. […]

For `O=C(O)c1cc(=O)c2c(OCC(O)COc3cccc4oc(C(=O)O)cc(=O)c34)cccc2o1` [cromolyn, Cromolyn], the “histamine levels compared to PBS and ELP controls” value (2 hours incubation with compound, FIG. 3) was “significantly reduced” and the “dose-dependency of reduction of histamine release” value (different concentrations) was “specific, dose-dependent decrease of histamine release”.

— US11123391B2, “Nasal composition” (INQPHARM GROUP SDN BHD, priority 2015, dated 2021)
